According to patent US20150241442A1:
Results are given in words; binding and its absence hold for the method and conditions named. In cells and extracts the contact can be indirect. Some results given as binding are weak or reduced against the parent protein; the word gives no strength.

By UniProt entry, the sequences of proteins in these tests, tags left out. Residues count along the entry.
UniProt P05107, residues 23-769: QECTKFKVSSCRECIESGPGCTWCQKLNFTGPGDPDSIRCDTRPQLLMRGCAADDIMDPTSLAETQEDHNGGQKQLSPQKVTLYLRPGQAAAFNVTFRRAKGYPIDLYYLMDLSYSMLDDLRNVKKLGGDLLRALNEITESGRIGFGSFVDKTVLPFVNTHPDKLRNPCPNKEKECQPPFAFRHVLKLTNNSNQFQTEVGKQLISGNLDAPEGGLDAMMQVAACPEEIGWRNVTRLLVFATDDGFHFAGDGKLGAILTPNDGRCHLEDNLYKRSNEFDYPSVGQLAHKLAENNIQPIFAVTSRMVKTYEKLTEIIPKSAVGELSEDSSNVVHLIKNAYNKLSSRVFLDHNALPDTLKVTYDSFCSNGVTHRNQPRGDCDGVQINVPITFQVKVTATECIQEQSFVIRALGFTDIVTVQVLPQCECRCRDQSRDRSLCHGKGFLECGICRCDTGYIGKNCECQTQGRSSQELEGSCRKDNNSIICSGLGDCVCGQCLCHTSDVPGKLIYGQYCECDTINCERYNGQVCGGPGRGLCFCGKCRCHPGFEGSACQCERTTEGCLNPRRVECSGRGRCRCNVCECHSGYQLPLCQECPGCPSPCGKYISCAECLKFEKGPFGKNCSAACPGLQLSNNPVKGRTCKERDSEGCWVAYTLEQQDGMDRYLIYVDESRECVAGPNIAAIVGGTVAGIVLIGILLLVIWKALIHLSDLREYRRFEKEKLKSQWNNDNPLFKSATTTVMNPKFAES
UniProt Q14289: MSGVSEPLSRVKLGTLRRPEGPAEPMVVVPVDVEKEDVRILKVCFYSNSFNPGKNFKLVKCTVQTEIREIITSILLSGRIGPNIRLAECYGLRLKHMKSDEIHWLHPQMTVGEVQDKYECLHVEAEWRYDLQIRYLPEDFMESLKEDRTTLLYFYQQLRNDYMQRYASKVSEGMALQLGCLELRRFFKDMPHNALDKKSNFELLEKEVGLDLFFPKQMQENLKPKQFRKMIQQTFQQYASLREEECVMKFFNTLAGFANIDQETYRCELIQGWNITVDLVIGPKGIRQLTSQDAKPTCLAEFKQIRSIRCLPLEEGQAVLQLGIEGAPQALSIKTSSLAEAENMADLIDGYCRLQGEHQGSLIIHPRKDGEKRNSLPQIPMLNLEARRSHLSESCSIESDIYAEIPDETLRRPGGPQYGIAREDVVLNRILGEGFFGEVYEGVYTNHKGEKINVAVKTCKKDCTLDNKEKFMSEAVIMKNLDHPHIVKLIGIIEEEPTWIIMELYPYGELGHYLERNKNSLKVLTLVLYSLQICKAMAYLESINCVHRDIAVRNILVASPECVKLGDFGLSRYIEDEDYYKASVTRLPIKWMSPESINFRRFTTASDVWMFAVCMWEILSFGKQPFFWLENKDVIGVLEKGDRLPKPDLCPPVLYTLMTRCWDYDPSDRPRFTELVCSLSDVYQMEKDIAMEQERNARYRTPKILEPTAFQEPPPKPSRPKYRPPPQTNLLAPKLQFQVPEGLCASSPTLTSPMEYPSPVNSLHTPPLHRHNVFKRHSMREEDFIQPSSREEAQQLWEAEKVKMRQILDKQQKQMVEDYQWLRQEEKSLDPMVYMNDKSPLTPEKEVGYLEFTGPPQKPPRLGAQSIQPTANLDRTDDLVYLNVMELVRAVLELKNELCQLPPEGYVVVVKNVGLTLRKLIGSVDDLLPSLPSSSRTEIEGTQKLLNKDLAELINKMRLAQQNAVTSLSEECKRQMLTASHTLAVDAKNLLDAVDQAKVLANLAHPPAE

Assays:
[1] = target: β2 integrin (LFA-1 subunit, Jurkat cells) (human (Jurkat T cells)) (UniProt P05107); assay: co-immunoprecipitation (FIG. 16B)
[2] = target: β2 integrin (LFA-1 subunit, Jurkat cells) (human (Jurkat T cells)) (UniProt P05107); assay: co-immunoprecipitation (FIG. 36B)
[3] = target: β2 integrin (LFA-1 subunit, Jurkat cells) (human (Jurkat T cells)) (UniProt P05107); assay: co-immunoprecipitation from Jurkat cells (FIG. 16B)
[4] = target: β2 integrin (LFA-1 subunit, Jurkat cells) (human (Jurkat T cells)) (UniProt P05107); assay: co-immunoprecipitation from Jurkat cells (FIG. 36B)
[5] = target: β2 integrin (LFA-1 subunit, Jurkat cells) (human (Jurkat T cells)) (UniProt P05107); assay: reciprocal co-immunoprecipitation from Jurkat cells (FIG. 16B)

- binding [1]: binds
- binding [2]: binds
- binding [3]: binds
- binding [4]: binds
- binding [5]: binds
Substance: proline-rich tyrosine kinase 2 (PYK2) (from UniProt Q14289 1-1009) (enzyme)
